Among the data in PMC12478159 are binding values, retold here.

Protein sequences, listed by entry. Tags and fused reporters are not part of them. Residues count along the entry.
UniProt Q6RJQ3, residues 26-338: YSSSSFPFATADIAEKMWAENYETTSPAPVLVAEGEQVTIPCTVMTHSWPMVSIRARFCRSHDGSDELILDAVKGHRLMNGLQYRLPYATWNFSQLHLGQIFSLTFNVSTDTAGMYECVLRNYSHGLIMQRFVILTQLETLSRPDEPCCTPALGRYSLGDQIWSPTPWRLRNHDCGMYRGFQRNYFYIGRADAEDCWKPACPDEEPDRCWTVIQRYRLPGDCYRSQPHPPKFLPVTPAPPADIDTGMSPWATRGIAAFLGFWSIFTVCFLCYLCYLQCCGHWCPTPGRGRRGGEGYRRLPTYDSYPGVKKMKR
UniProt F5HB53, residues 25-907: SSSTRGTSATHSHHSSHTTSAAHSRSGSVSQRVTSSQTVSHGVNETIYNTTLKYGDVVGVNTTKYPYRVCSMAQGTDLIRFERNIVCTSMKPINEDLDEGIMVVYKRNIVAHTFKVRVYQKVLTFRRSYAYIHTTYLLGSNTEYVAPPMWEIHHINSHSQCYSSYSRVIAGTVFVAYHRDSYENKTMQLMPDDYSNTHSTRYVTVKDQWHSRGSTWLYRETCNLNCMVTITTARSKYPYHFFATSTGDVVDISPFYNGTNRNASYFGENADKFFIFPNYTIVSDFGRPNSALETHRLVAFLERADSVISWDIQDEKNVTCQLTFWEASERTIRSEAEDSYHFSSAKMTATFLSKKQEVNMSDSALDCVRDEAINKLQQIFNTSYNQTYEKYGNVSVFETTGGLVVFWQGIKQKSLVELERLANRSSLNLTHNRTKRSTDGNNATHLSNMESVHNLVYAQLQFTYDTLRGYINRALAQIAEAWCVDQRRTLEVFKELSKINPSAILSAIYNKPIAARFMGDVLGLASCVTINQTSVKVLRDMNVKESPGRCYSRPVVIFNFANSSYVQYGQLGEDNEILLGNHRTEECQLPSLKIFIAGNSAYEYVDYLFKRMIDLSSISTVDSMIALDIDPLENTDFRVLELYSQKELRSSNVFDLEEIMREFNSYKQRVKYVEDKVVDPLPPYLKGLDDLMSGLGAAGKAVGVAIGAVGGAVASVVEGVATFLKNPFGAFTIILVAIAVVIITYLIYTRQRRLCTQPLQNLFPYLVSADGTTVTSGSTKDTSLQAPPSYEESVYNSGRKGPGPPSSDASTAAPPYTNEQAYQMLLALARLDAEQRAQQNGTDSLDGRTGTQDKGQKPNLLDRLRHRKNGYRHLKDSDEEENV
UniProt Q6SW67, residues 24-742: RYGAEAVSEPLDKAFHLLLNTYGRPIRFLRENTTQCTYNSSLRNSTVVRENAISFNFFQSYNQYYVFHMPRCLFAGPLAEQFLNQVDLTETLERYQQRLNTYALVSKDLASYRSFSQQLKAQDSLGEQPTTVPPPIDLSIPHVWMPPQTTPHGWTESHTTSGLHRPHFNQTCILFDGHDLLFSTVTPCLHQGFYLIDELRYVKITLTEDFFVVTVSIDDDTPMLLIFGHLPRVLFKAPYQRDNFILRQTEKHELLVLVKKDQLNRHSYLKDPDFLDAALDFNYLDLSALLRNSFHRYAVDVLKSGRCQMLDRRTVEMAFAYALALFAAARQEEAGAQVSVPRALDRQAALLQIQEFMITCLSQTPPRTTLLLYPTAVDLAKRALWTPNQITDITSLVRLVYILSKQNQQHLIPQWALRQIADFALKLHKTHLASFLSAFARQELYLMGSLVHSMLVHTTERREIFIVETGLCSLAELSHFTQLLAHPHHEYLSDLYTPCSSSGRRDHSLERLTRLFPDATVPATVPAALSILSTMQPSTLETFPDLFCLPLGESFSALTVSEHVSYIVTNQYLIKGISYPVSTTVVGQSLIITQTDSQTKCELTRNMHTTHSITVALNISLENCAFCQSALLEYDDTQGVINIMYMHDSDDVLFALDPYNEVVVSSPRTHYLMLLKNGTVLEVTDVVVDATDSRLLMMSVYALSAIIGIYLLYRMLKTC
UniProt F5HCH8, residues 31-278: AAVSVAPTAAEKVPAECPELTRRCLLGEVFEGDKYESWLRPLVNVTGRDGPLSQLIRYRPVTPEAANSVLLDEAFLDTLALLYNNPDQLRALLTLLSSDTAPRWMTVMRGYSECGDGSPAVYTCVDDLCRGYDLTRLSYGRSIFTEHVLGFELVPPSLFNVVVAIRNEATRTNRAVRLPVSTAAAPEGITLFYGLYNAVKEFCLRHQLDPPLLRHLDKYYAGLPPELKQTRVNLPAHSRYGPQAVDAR

Results are given in words; binding and its absence hold for the method and conditions named. In cells and extracts the contact can be indirect. A yes stands for co-enrichment or nearness to the bait. Other partners may have been found.

In this test the target is gpUL141 with a C-terminal V5 tag, expressed from HCMV strain Merlin (Human cytomegalovirus (HCMV) strain Merlin) (UniProt Q6RJQ3). Briefly: affinity purification with mass spectrometry; SILAC-IP: purified cell-free strain Merlin virions lacking UL128L, with gpUL141-V5 (Medium) or deleted for UL141 (Heavy), grown in HFFF; IP with a V5 antibody, MS, ratio between the two samples.
As for “gB, from HCMV strain Merlin (from UniProt F5HB53 25-907)”, the binding entry is given as “binds”.
For the substance “gH, from HCMV strain Merlin (from UniProt Q6SW67 24-742)”, the binding result is “binds”.
As for “gL, from HCMV strain Merlin (from UniProt F5HCH8 31-278)”, the binding entry is “binds”.
